Experimental data published in the supplement of paper PMC10849652.
The list shows a part of the results.

Amino acid sequences for entries named in this document (tags omitted). A change or cut given only in a name is not applied to a line headed by its entry.
UniProt Q9UJY5: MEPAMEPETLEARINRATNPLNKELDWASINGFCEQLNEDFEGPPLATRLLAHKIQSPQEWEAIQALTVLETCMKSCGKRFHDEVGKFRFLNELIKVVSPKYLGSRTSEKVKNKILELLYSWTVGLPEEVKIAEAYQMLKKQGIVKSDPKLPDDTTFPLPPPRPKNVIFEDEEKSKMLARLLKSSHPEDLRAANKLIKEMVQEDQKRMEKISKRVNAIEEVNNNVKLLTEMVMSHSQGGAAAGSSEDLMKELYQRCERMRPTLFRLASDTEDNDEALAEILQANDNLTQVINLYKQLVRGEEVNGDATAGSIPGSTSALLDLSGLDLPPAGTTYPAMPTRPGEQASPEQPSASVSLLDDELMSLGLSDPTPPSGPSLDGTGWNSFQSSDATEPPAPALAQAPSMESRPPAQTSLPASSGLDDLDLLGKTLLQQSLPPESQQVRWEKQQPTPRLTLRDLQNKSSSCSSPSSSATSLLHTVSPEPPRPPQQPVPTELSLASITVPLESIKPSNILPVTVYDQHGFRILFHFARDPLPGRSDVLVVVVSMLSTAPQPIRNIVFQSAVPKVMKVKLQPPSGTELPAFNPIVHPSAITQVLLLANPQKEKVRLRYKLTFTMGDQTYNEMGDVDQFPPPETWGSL
UniProt Q8N2G8: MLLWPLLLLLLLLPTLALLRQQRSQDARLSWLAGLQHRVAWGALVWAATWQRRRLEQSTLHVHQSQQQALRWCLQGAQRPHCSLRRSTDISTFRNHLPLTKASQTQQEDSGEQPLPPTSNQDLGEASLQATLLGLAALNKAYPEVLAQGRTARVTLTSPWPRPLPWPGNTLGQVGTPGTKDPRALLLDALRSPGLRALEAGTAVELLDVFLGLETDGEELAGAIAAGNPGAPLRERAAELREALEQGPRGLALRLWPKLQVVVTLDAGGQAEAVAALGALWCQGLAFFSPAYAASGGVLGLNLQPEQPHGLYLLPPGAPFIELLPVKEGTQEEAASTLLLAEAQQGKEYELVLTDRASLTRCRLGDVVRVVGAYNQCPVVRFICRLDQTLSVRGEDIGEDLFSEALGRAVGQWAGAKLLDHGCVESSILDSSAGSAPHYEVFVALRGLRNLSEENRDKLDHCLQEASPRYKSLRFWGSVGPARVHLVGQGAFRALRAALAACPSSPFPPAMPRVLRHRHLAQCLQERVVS
UniProt P09958, whole entry, looked up: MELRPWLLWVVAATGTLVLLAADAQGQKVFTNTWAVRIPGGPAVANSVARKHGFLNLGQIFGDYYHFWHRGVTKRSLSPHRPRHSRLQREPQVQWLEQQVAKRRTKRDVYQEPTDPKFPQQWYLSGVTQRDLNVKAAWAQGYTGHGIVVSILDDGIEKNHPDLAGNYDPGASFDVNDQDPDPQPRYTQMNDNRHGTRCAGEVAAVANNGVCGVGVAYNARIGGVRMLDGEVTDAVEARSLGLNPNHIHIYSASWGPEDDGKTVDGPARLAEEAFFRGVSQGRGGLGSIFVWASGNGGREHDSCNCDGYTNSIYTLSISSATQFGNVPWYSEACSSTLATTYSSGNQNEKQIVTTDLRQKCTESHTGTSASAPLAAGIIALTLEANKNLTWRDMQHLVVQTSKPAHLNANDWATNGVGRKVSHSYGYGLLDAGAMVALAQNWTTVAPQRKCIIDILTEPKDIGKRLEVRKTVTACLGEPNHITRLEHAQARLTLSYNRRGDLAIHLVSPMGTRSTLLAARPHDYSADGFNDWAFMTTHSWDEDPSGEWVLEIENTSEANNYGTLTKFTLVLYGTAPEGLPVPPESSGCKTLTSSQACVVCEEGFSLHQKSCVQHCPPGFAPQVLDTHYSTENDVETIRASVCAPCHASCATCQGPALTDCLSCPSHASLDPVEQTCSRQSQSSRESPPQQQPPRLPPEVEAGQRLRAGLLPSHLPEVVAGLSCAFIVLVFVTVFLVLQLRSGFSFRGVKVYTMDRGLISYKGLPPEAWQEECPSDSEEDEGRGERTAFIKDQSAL
UniProt P15976: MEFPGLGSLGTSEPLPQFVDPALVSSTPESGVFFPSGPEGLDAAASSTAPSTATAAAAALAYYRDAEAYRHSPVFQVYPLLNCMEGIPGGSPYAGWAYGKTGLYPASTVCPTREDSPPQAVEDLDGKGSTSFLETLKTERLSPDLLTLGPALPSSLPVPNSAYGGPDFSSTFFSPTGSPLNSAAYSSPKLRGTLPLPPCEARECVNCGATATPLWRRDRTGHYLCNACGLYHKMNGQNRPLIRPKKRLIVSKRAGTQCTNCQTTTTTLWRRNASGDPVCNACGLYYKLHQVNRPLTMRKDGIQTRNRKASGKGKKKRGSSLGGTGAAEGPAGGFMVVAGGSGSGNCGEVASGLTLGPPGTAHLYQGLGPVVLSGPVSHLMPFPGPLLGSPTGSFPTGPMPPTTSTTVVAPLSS
UniProt Q5TBA9: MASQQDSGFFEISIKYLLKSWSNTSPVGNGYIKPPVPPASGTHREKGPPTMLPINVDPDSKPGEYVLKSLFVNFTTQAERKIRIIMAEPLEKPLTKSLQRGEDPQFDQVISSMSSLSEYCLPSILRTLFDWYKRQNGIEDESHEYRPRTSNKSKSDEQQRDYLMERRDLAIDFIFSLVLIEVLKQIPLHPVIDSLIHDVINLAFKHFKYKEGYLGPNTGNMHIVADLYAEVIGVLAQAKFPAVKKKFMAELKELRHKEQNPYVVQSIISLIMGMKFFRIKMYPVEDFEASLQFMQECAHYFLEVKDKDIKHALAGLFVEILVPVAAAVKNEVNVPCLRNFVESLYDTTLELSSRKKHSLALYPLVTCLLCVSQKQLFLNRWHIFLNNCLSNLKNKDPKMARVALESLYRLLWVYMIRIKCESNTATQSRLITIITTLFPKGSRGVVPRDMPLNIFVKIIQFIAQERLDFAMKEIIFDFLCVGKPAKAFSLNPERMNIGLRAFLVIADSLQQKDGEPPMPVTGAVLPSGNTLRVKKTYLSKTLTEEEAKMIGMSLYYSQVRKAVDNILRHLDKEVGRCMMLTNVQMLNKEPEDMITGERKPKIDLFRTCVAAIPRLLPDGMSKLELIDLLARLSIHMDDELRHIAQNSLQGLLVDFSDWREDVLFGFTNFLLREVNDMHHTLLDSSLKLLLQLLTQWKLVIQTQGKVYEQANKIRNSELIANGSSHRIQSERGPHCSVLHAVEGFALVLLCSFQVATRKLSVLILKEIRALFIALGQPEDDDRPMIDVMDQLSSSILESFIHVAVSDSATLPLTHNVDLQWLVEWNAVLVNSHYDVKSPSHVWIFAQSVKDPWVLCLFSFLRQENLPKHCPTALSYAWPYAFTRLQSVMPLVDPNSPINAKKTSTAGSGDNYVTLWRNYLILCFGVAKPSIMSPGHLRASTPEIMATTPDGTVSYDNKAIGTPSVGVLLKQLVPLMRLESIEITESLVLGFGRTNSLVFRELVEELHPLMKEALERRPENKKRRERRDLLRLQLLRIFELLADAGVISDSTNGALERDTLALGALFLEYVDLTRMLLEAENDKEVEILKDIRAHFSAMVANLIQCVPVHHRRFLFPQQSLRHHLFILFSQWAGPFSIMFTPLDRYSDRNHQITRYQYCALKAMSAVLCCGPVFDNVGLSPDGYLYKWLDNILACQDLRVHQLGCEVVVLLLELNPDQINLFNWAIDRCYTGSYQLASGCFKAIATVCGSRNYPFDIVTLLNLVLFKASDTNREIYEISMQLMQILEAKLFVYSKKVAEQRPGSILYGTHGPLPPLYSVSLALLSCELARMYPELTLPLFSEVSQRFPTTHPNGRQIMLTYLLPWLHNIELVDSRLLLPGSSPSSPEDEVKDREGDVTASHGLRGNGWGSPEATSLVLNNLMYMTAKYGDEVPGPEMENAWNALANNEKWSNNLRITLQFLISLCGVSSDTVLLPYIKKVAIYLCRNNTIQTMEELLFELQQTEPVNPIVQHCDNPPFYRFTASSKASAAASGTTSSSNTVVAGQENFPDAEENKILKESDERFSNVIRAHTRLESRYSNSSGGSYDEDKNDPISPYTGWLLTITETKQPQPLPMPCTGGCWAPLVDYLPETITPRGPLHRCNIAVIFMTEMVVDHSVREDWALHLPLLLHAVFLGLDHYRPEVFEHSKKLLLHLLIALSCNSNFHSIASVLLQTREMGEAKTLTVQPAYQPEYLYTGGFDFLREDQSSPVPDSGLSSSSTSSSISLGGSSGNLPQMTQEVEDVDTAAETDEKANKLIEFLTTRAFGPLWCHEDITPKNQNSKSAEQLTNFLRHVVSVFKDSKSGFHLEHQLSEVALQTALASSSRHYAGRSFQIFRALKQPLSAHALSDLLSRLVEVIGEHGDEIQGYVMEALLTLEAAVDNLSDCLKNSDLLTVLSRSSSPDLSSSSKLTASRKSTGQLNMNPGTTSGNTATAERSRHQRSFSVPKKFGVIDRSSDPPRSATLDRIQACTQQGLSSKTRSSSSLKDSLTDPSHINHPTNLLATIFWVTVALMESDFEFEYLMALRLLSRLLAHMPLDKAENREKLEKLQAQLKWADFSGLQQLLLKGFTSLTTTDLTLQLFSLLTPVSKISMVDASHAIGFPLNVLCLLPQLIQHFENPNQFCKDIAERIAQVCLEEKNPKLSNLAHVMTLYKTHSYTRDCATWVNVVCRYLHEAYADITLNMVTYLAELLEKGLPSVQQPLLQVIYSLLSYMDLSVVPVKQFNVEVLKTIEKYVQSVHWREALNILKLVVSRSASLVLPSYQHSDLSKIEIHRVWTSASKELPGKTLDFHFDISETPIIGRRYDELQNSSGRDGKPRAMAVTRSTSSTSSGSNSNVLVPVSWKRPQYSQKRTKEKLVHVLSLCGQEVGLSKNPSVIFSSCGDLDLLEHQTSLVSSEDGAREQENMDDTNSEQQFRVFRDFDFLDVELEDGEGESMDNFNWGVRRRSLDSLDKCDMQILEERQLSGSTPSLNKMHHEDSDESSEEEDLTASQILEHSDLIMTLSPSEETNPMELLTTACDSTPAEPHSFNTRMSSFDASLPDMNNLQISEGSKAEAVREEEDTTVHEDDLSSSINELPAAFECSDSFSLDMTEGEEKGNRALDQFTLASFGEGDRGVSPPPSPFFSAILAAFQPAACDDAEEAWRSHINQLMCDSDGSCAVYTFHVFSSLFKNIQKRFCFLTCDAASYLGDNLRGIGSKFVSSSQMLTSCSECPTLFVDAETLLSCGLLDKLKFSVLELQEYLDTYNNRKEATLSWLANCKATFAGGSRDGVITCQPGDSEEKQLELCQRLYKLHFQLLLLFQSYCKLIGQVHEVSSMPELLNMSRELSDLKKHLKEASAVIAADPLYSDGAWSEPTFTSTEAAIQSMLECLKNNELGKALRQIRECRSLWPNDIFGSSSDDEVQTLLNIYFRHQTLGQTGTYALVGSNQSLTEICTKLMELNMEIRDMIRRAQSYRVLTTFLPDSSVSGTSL
UniProt P23769: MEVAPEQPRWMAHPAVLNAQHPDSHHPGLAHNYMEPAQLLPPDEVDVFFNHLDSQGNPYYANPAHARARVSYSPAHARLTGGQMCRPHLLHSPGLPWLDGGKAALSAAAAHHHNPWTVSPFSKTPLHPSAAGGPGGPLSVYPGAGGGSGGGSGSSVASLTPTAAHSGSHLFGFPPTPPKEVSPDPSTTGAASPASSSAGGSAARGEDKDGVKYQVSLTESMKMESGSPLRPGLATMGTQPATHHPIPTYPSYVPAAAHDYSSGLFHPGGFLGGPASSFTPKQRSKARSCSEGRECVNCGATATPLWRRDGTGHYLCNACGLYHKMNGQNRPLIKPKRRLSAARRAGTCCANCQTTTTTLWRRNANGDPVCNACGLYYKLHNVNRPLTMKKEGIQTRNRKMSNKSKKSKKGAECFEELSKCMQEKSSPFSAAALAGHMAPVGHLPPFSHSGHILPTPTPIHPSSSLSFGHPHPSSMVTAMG
UniProt Q9UP38, whole entry, looked up: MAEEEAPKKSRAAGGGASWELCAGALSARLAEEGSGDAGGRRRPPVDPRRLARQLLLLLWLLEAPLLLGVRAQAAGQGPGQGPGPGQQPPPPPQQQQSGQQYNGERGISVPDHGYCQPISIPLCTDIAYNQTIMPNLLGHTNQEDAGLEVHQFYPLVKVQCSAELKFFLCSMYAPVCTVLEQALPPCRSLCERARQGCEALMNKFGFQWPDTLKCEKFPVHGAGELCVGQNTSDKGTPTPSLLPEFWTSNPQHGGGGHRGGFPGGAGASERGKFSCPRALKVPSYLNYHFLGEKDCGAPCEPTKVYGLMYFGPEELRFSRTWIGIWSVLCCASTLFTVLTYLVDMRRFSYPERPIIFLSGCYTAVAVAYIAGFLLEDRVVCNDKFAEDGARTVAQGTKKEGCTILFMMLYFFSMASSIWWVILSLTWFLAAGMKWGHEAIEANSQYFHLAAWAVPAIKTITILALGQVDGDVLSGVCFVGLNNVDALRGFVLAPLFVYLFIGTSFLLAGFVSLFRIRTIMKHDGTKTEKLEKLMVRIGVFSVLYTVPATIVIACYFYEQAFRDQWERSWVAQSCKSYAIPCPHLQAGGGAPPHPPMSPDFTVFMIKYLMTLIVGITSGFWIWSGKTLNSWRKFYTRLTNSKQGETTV

Tests used:
Test in all cases: log2 fold change, soluble protein after heating vs DMSO (PISA); higher = thermal stabilisation; K562 cells, 10 uM, 30 min; active = over 0.2 and 3.5 SD of the protein, either way, in both replicates (recomputed)
[1] = compound: C1=CC=C(C=C1)[C@H](COC2=CC3=C(C=C2)NC(=O)N3)NC(=O)C4=CC=CN(C4=O)CC5=CC(=C(C=C5)F)F
Method in brief: (§1)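 Values are thermal stability changes relative to control samples and are taken from duplicates. They are stated as log2 fold changes. Before quantification by TMTpro 16plex LC-MS/MS with equalised channel sums, K562 cells at 2×10^6 cells/mL were treated with 10 μM compound for 30 min, heated in aliquots for 3 min across 48°C-58°C, pooled, extracted in PBS with 0.5% NP-40 at 4°C, and centrifuged at 21,000xg for 90 min to give the soluble supernatant.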

[2] = compound: CC1=C(SC2=C1C(=N[C@H](C3=NN=C(N32)C)CC(=O)N)C4=CC=C(C=C4)Cl)C
Method in brief: as §1

[3] = compound: CC1=C2C(=CC=C1)N=C(N(C2=O)C3=CC=CC=C3C)CN4C=NC5=C(N=CN=C54)N
Method in brief: as §1

[4] = compound: Cc1sc2c(c1C)C(c1ccc(Cl)cc1)=N[C@@H](CC(=O)OC(C)(C)C)c1nnc(C)n1-2
Method in brief: as §1

[5] = compound: c1ccc([C@@H]2C[C@H]2NC2CCNCC2)cc1
Method in brief: as §1

Measured: log2 fold change

GGA1 isoform 6 (UniProt Q9UJY5)
inactive: [1] -0.004 | [2] 0.01 | [3] 0.046 | [4] 0.015 | [5] -0.068

GGNBP2 (UniProt Q9H3C7)
inactive: [1] 0.082 | [2] 0 | [3] -0.08 | [4] 0.053 | [5] -0.218

FRRS1 (UniProt Q6ZNA5)
inactive: [1] -0.016 | [2] 0.007 | [3] 0.007 | [4] 0.008 | [5] 0.015

GHDC (UniProt Q8N2G8)
inactive: [1] 0.061 | [2] 0.016 | [3] 0.022 | [4] 0.031 | [5] -0.019

FURIN (UniProt P09958)
inactive: [1] 0.004 | [2] 0.123 | [3] -0.037 | [4] -0.036 | [5] -0.001

GATA1 (UniProt P15976)
inactive: [1] 0.061 | [2] -0.014 | [3] 0.064 | [4] 0.117 | [5] 0.029

FRY (UniProt Q5TBA9)
inactive: [1] 0.303 | [3] -0.006 | [4] -0.044

GATA2 (UniProt P23769)
inactive: [1] 0.051 | [2] 0.06 | [3] -0.139 | [5] -0.101

FPGS (UniProt Q05932)
inactive: [1] -0.072 | [2] -0.069 | [3] 0.117 | [5] 0.196

FZD1 (UniProt Q9UP38)
inactive: [1] 0.18 | [2] 0 | [3] 0.034 | [5] 0.168

FUT4 (UniProt P22083)
inactive: [4] 0.108

GAA (UniProt P10253)
inactive: [3] -0.042 | [4] -0.085

Pulled one by one from the entries so far (two):
FPGS (UniProt Q05932)
inactive: [1] -0.072 | [2] -0.069 | [3] 0.117 | [5] 0.196

GATA2 (UniProt P23769)
inactive: [1] 0.051 | [2] 0.06 | [3] -0.139 | [5] -0.101
